Data as given in PubChem BioAssay AID1259254 (NCATS, 2017).

- Aim: 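Gene knock-downs that lead to re-replication, shown by excess G2 DNA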 (primary screen)
- System: human HCT116 colorectal cancer cells
- Knock-down reagent: single siRNA against human genes
- Time to read-out: 3 days
- Measurement: 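Imaged Hoechst DNA stain sorts each cell into a cycle phase by DNA amount; per plate, G2 fraction set to 0% for non-targeting and 100% for GMNN siRNA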
- Reading the numbers: G2 robust z-score: higher = more G2 cells, more excess DNA replication
- Hit rule: 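An siRNA counts as active if its G2 robust z-score lies at least 5 MADs above the screen median; here such calls match roughly 38% of GMNN control or more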
The deposit covers about 59,000 reagents; shown is a part drawn at random. About 1,550 of all reagents (2.6%) count as active. 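G2 share is only a proxy for re-replication; each gene was hit by three separate siRNAs, and active genes were retested.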 Entries without a mark were called inactive. Reagents against one gene are numbered here. Not all columns of the deposit are shown. Not given: the amount of reagent.

What is on record for WDPCP (WD repeat containing planar cell polarity effector) #1?
G2 robust z-score: -0.636

What is on record for WDPCP (WD repeat containing planar cell polarity effector) #2?
G2 robust z-score: 2.2

With WDPCP (WD repeat containing planar cell polarity effector) #3, how do the results read?
G2 robust z-score: -0.751

How did the screen score IKBIP (IKBKB interacting protein) #1?
G2 robust z-score: 0.1

How did the screen score IKBIP (IKBKB interacting protein) #2?
G2 robust z-score: -0.825

With IKBIP (IKBKB interacting protein) #3, how do the results read?
G2 robust z-score: -0.0572

With STX17-DT (STX17 divergent transcript) #1, how do the results read?
G2 robust z-score: -0.878

For STX17-DT (STX17 divergent transcript) #2, what was measured?
G2 robust z-score: -0.132

With STX17-DT (STX17 divergent transcript) #3, how do the results read?
G2 robust z-score: -0.072

What is on record for GNG12 (G protein subunit gamma 12) #1?
G2 robust z-score: -0.474

With GNG12 (G protein subunit gamma 12) #2, what does the deposit list?
G2 robust z-score: -0.365

With GNG12 (G protein subunit gamma 12) #3, how do the results read?
G2 robust z-score: -0.287

What is on record for ZNF174 (zinc finger protein 174) #1?
G2 robust z-score: -0.89

With ZNF174 (zinc finger protein 174) #2, what does the deposit list?
G2 robust z-score: -0.198

What did the screen give for ZNF174 (zinc finger protein 174) #3?
G2 robust z-score: 0.171

An excerpt taken from the entries so far, for reference:
WDPCP (WD repeat containing planar cell polarity effector) #1: G2 robust z-score = -0.636
WDPCP (WD repeat containing planar cell polarity effector) #2: G2 robust z-score = 2.2

The list goes on.
How did the screen score HSPB7 (heat shock protein family B (small) member 7) #1?
G2 robust z-score: -0.827

What is on record for HSPB7 (heat shock protein family B (small) member 7) #2?
G2 robust z-score: -0.326

What is on record for HSPB7 (heat shock protein family B (small) member 7) #3?
G2 robust z-score: -1.64

For FAM204A (family with sequence similarity 204 member A) #1, what was measured?
G2 robust z-score: 0.724

With FAM204A (family with sequence similarity 204 member A) #2, how do the results read?
G2 robust z-score: 1.74

For FAM204A (family with sequence similarity 204 member A) #3, what was measured?
G2 robust z-score: 0.109

With FAM171A1 (family with sequence similarity 171 member A1) #1, what does the deposit list?
G2 robust z-score: -0.171

Which result is listed for FAM171A1 (family with sequence similarity 171 member A1) #2?
G2 robust z-score: -0.0441

For FAM171A1 (family with sequence similarity 171 member A1) #3, what was measured?
G2 robust z-score: -0.473

How did the screen score ARHGEF12 (Rho guanine nucleotide exchange factor 12) #1?
G2 robust z-score: -0.76

With ARHGEF12 (Rho guanine nucleotide exchange factor 12) #2, how do the results read?
G2 robust z-score: 1.21

With ARHGEF12 (Rho guanine nucleotide exchange factor 12) #3, what was measured?
G2 robust z-score: -1.13

For ASCL3 (achaete-scute family bHLH transcription factor 3) #1, what does the deposit list?
G2 robust z-score: -0.439

What did the screen give for ASCL3 (achaete-scute family bHLH transcription factor 3) #2?
G2 robust z-score: -0.212

With ASCL3 (achaete-scute family bHLH transcription factor 3) #3, what does the deposit list?
G2 robust z-score: 7.3 (active)
